In PMC9039064 one finds binding data, which are given here for 3 substances.

Amino acid sequences for entries named in this document (tags omitted).
UniProt Q00987: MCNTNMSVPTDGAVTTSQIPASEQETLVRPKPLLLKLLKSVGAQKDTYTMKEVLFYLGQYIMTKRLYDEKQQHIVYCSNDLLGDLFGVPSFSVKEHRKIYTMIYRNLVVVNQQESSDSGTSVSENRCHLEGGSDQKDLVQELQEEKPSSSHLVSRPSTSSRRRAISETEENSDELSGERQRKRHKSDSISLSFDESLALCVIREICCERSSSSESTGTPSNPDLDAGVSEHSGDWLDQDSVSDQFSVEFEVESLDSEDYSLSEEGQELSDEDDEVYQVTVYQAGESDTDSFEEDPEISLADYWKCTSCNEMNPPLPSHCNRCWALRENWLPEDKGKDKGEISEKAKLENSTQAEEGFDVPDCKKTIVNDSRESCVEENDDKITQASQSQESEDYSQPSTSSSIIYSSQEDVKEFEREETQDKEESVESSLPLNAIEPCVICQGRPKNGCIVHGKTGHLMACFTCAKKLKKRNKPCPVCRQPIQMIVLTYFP
UniProt Q9Y566: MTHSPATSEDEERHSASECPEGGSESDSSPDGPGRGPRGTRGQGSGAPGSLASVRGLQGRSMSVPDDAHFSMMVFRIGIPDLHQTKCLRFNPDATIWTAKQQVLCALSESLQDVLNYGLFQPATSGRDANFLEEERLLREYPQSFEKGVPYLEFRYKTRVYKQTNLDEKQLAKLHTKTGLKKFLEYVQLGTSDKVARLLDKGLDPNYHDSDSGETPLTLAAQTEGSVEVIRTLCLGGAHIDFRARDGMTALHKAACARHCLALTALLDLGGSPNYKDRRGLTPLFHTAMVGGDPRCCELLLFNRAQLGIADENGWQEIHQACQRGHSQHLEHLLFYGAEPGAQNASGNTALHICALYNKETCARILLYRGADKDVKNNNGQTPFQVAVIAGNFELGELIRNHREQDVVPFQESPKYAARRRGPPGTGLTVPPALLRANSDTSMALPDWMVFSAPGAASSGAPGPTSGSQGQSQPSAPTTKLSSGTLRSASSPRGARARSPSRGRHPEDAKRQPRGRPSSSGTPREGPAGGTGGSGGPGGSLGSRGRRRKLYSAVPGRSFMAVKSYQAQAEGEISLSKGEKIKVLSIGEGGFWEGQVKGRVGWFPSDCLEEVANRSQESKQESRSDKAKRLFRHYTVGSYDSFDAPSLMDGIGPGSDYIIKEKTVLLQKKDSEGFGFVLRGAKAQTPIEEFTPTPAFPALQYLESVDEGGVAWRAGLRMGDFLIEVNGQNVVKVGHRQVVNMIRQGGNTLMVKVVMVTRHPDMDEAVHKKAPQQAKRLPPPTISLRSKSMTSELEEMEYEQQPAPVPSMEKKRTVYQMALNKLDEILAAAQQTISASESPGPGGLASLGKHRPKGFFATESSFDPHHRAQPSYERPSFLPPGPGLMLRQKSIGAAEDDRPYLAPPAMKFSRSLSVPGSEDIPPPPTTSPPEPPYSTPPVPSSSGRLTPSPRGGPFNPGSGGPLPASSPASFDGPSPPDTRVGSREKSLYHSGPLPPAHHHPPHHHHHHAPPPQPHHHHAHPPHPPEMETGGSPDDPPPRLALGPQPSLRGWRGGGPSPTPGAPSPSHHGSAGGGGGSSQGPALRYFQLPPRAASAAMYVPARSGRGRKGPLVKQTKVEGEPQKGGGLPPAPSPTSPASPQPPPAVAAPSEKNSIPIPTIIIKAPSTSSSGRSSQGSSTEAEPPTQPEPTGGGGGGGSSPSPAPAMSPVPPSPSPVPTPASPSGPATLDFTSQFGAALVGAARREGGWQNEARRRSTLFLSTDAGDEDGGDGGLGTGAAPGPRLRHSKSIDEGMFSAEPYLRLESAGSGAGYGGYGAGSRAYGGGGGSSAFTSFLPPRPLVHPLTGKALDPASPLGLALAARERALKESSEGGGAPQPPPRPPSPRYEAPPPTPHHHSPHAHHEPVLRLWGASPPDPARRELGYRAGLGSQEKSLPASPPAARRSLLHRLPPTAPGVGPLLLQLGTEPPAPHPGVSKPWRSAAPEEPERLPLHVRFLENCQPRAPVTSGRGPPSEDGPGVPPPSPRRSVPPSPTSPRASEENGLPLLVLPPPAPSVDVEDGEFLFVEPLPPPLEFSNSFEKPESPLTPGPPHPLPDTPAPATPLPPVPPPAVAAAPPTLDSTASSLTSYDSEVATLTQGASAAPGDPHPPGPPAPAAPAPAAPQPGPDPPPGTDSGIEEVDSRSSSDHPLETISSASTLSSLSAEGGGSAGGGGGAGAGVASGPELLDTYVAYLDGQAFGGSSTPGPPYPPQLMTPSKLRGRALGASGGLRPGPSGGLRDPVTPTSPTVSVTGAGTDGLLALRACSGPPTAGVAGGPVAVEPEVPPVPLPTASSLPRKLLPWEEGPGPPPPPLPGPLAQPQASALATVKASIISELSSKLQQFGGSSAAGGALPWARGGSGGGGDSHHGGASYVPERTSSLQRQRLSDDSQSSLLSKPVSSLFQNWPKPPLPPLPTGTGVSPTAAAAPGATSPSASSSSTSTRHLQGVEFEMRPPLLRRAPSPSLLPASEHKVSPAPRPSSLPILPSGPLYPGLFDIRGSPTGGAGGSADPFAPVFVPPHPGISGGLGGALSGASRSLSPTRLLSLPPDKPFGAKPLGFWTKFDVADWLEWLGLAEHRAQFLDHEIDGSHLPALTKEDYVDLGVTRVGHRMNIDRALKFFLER

Assay [1] concerns the target T1, Klotho (KL), endogenous in human NSCLC cells (human (endogenous in A549 and H1299)) (UniProt Q9UEF7).
T1 sequence: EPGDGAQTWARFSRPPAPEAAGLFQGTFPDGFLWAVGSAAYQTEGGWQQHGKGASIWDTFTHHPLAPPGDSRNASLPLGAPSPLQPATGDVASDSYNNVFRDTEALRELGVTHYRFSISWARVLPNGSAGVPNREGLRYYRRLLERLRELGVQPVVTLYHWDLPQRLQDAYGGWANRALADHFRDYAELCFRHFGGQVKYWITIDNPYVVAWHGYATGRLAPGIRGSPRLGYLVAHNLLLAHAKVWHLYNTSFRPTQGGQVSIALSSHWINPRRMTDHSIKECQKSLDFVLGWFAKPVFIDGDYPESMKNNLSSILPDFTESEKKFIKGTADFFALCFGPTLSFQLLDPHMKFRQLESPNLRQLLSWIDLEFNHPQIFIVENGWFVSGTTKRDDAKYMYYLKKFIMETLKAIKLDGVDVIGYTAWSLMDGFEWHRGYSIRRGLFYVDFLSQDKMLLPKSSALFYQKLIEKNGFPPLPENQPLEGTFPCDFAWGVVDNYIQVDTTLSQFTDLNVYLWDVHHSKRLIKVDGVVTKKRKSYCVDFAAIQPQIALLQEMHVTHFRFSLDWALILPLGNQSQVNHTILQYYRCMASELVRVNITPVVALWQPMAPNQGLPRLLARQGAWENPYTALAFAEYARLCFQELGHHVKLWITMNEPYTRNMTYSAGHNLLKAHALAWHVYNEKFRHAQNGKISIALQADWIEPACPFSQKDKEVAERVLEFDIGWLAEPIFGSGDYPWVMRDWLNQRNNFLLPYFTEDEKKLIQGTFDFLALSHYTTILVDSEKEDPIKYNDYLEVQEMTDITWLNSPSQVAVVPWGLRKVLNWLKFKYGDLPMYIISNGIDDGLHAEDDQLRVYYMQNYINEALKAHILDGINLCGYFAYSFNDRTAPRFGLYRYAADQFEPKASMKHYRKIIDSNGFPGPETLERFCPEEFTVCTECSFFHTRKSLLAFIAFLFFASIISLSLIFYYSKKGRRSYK
Briefly: co-IP; endogenous proteins, A549 cell lysate; IP with mouse anti-MDM2 or rabbit anti-KL; immunoblot; some samples with si-SHANK1.

In assay [2] the target is T1, Klotho (KL), endogenous in human NSCLC cells (human (endogenous in A549 and H1299)). Briefly: co-IP; endogenous proteins, H1299 cell lysate (without p53 expression); IP with KL antibody; immunoblot; with or without si-SHANK1.
Assay [3] deals with T2, Flag-KL (Flag-tagged Klotho) (human) (UniProt Q9UEF7).
T2 sequence: T1 sequence
Put plainly: co-IP; transfected A549 cells (the text says HEK-293 for Fig. 5A); lysate in TNE buffer or IP buffer (50 mM Tris-HCl, 2 mM EDTA, 250 mM NaCl, 10% glycerol, 0.5% NP-40); IP with anti-FLAG, anti-HA or anti-Myc and Protein G agarose overnight at 4 °C; immunoblot; some samples with SHANK1 overexpression, sh/si-SHANK1 or si-MDM2.

The target in assay [4] is MDM2, endogenous in human NSCLC cells (human (endogenous in A549 and H1299)) (UniProt Q00987). Put plainly: co-IP; endogenous proteins, A549 cell lysate; IP with mouse anti-MDM2 or rabbit anti-KL; immunoblot; some samples with si-SHANK1. Background: Immunoblotting shows a protein as a band on a membrane.

These are yes or no findings as the source states them, for the method shown. In cells and extracts the contact can be indirect. Some entries that bind do so weakly or less than the wild type. For part of these data: Tags and fused reporters may be left off the sequences shown.

With “MDM2, endogenous in human NSCLC cells (from UniProt Q00987 1-491)”, the binding result in assay [1] and in assay [2] was “binds” throughout.
In the case of “SHANK1-myc (SH3 and multiple ankyrin repeat domains 1, myc-tagged) (from UniProt Q9Y566 1-2161)”, in assay [3], the binding entry is recorded as “binds”.
Regarding “SHANK1, endogenous in human NSCLC cells (from UniProt Q9Y566 1-2161)”, the binding result in assay [1], in assay [4] and in assay [2] was “binds” each time.
